This note sets out measurements from article PMC7934882.

Amino acid sequences for entries named in this document (tags omitted).
UniProt Q9UKE5: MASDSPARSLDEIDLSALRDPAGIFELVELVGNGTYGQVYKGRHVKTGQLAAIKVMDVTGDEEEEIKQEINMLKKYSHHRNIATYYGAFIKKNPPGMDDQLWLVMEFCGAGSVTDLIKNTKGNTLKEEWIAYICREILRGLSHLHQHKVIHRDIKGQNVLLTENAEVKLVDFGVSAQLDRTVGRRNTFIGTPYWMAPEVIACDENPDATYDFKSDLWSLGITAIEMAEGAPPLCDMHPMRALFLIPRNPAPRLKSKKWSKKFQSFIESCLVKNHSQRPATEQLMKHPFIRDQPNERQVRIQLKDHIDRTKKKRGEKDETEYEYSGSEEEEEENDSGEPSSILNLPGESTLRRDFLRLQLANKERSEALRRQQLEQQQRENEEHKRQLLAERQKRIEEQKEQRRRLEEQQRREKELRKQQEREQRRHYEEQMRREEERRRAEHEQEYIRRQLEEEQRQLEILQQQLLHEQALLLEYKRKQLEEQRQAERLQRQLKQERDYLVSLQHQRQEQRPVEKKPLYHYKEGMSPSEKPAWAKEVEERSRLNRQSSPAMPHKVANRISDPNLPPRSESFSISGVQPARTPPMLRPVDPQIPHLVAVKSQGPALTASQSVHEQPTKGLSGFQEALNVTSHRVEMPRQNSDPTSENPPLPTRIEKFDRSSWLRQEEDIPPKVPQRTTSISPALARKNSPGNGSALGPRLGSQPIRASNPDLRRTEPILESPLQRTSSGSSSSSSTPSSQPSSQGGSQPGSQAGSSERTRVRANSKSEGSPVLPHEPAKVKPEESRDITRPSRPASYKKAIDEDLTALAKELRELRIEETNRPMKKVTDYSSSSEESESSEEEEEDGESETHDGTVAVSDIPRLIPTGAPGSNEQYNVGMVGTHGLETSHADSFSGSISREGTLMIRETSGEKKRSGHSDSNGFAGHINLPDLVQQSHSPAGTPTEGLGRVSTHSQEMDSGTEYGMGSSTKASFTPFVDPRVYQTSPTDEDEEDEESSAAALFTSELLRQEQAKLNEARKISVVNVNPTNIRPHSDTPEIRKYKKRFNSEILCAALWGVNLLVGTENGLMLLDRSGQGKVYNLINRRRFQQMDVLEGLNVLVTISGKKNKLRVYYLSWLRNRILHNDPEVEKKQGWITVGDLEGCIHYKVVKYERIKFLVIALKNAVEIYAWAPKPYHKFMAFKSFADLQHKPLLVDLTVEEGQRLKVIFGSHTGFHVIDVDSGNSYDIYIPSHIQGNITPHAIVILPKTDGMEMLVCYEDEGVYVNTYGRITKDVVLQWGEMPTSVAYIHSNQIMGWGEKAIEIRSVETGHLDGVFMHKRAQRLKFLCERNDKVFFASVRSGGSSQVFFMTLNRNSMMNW
UniProt P37231: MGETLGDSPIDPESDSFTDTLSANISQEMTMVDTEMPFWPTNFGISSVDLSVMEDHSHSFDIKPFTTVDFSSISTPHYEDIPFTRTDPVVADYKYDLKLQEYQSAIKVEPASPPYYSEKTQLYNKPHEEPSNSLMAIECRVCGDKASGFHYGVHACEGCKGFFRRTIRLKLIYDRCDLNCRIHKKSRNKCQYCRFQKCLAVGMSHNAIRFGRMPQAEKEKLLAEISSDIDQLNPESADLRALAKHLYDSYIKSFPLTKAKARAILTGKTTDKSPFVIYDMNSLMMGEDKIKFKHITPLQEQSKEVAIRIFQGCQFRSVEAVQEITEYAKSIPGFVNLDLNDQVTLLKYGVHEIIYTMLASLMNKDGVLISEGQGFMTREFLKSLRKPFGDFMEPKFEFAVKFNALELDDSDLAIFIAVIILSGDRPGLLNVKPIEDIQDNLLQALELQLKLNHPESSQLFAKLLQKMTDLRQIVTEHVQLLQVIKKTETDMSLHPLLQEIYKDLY

These are yes or no findings as the source states them, for the method shown. In cells and extracts the contact can be indirect. Some binding calls cover weakened binding; strength is not graded here.

For this assay, the target named is TRAF2- and NCK-interacting protein kinase (TNIK) (human (endogenous in U2OS)) (UniProt Q9UKE5). As to the kind of experiment: co-IP; nuclear protein extract of U2OS cells (NE-PER); incubated at 4°C overnight with anti-TNIK, anti-PPARγ or relevant control IgG; precipitated with Dynabeads protein G; immunoblotted with anti-TNIK and anti-PPARγ. (Immunoblotting shows a protein as a band on a membrane.)

For the substance PPARγ (from UniProt P37231 1-505), the binding entry is “binds”.
